# Measured values reported in PubChem BioAssay AID1259415 (National Center for Advancing Translational Sciences (NCATS), 2018).
# Out of some 410,000 compounds screened, about 18,000 (4.4%) were called active. The inconclusive results got no clear call from the source; some entries with a clear call stand among them for comparison. Cut-off read from the data, not from the text of the source: active = activity change below about -60%; inconclusive = no clear call, values can overlap the other calls; inactive = above about -39%.
# Test: qHTS Assay for inhibitors of the human cytomegalovirus (HCMV)
# Conditions: HFF cells, HCMV-luciferase reporter, 72 h; at 57.5 µM; stronger effect = lower value
# In short: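 Inhibition of viral replication was scored as loss of reporter luminescence in HFFs infected with HCMV-luciferase (MOI 1 PFU/cell) for 72 h; compounds tested at 2 doses, normalized to buffer and Salinomycin controls.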
# % is set by controls: 0 for no effect and ±100 for the full control effect.
row,SMILES,"activity change, negative = inhibition"
1,N/C(=N\OC(=O)/C=C/c1ccccc1)c1ccc(Br)cc1,inconclusive: -40.7%
2,O=C(N/N=C/c1ccccc1[N+](=O)[O-])c1cnccn1,inactive: 8.38%
3,C/C(=N\NC(=O)c1cc(-c2ccc(Br)s2)[nH]n1)c1ccncc1,inconclusive: -49.2%
4,O=C(Nc1cccc(-c2ccc(F)cc2)c1)C1CCCN(C(=O)c2cscn2)C1 (centres undefined),inconclusive: -59.2%
5,COc1ccc(NCCC(O)c2ccc(Cl)cc2)cc1 (centres undefined),inconclusive: -41.5%
6,NC1(C(=O)O)CCCc2ccc(N(CCCl)CCCl)cc21 (centres undefined),active: -63%
7,COc1ccc(OC)c(/C=C(\C#N)c2nc(-c3ccc(F)cc3)cs2)c1,inactive: 39.4%
8,Cn1c(C(=O)OCC(=O)NCc2cccs2)cc2sccc21,inconclusive: -40.1%
9,O=c1cc(-c2ccccc2[N+](=O)[O-])oc2ccccc12,active: -66%
10,OC1(c2ccc(Cl)c(Cl)c2)C[n+]2ccccc2N1Cc1ccccc1 (centres undefined),inconclusive: -51.6%
11,CN(C)c1ccc(-c2nn3c(-c4ccccc4Cl)nnc3s2)cc1,active: -74.3%
12,Cc1cc(C)n(S(=O)(=O)c2ccc(Cl)cc2)n1,inactive: -0.53%
13,Cc1ccc(NC(=O)NC(=O)N(C2CCCCC2)S(=O)(=O)c2ccccc2)cc1,inconclusive: -51.8%
14,COc1ccccc1NC(=O)CC(c1ccc(OC(C)C)cc1)c1ccccc1OC (centres undefined),inconclusive: -43.4%
15,Cc1ccc(-c2csc3ncnc(Nc4ccc(C(=O)O)cc4)c23)cc1,inconclusive: -55.8%
16,Cc1nc(NCc2cccnc2)c2c3c(sc2n1)CC(C)CC3 (centres undefined),inconclusive: -46.8%
17,COc1ccc(CNC(=O)C2CCN(S(=O)(=O)c3ccc4c(c3)N(C(C)=O)CCO4)CC2)cc1,inactive: -33.5%
18,CCCNC(=O)C(Cc1ccccc1)NS(=O)(=O)c1ccc2c(c1)c(=O)n(C)c(=O)n2C (centres undefined),inconclusive: -41.9%
19,CCOC(=O)c1[nH]c(C)c(C(=O)OCC(=O)N2CCc3ccccc32)c1C,inactive: 7.73%
20,CN(CC(=O)Nc1cccc(F)c1)C(=O)c1ccc(COc2ccccc2)cc1,inconclusive: -52.7%
21,CSc1ccccc1C(=O)NCc1cccnc1,inconclusive: -41.3%
22,O=C(Nc1ccc(Cl)cc1)c1cc(S(=O)(=O)NC2CCCCCC2)ccc1F,active: -66.8%

# Copied from the list:
# Value for Cc1ccc(-c2csc3ncnc(Nc4ccc(C(=O)O)cc4)c23)cc1 under activity change, negative = inhibition: inconclusive: -55.8%
# Value for COc1ccc(NCCC(O)c2ccc(Cl)cc2)cc1 (centres undefined) under activity change, negative = inhibition: inconclusive: -41.5%

# Following part:

row,SMILES,"activity change, negative = inhibition"
1,O=C1CCC([N+](=O)[O-])C(c2ccccc2Cl)N1 (centres undefined),inactive: 3.42%
2,COc1ccc(/C=C(/NC(=O)c2ccccc2)c2nc3ccc(Cl)cc3[nH]2)cc1OC,inconclusive: -48.7%
3,CCc1ccccc1NC(=O)c1ccc(F)c(S(=O)(=O)N2CCN(c3cccc(Cl)c3)CC2)c1,inactive: -35%
4,COc1ccc(CNC(=O)CN2CCN(S(=O)(=O)c3ccccc3)CC2)cc1,inactive: -8.78%
5,CCC(=O)Nc1ccc(-c2ccc(NC(=O)CC)c(OC)c2)cc1OC,inconclusive: -43.4%
6,COc1cc(C2C(S(=O)(=O)c3ccccc3)CON2C)ccc1OCc1ccc(F)cc1 (centres undefined),inconclusive: -41.5%
7,COCCCn1c(=N)c(C(=O)NC2CCCCC2)cc2c(=O)n3cc(C)ccc3nc21,inconclusive: -52.7%
8,COc1ccc(CCNc2ncnc3onc(C)c23)c(OC)c1,inconclusive: -48.1%
9,Cc1ccc(SC(C)C(=O)Nc2ccccc2-c2ccccc2)cc1 (centres undefined),inconclusive: -43.1%
10,C[C@H]1Cn2cnc(C(=O)NCC(=O)OC(C)(C)C)c2C(=O)N1,inactive: 4.17%
11,O=C(O)c1cc(Cl)c(Cl)cc1C(=O)NCc1ccco1,inactive: 0.153%
12,COc1ccc(-n2nc(C(=O)NCC(=O)NCCCN3CCCCCC3)c3ccccc3c2=O)cc1Cl,inconclusive: -47%
13,O=C(COC(=O)c1ccc(F)cc1)Nc1ccc(Cl)cn1,inconclusive: -40.1%
14,CCc1ccc(C(C(=O)NC2CCCC2)N(CCOC)C(=O)CCC(=O)Nc2cc(C)on2)cc1 (centres undefined),inactive: -4.53%
15,C=CCC1(CC=C)CCCN1C(=O)C1CCC(=O)N(CCc2ccccc2)C1 (centres undefined),inactive: 110%
16,CC(C)C[C@H](NC(=O)N1CCn2c1nc1ccccc12)C(=O)NC1CCCCC1,inconclusive: 0%
17,COc1cc(C(CC(=O)Nc2ncccc2C)N2Cc3ccccc3C2=O)cc(OC)c1OC (centres undefined),inconclusive: -44.7%
18,CN1CCN(c2ccc(S(=O)(=O)N3CCCCC3)cc2NC(=O)c2cccc([N+](=O)[O-])c2)CC1,inactive: -20.6%
19,CC1CN(S(=O)(=O)c2cccc(C(=O)NCC(c3cccs3)N3CCOCC3)c2)CC(C)O1 (centres undefined),inconclusive: -42%
20,COCCN(C(=O)COC(=O)c1cc2ccccc2cc1O)c1c(N)n(Cc2ccccc2)c(=O)[nH]c1=O,inactive: -30.3%
21,CC(C)[C@H]1COCCS(=O)(=O)N1Cc1ccccc1-c1ccc(F)cc1,inactive: -19.7%
22,Cc1[nH]c2ccccc2c1/C=N\NC(=O)c1ccco1,inconclusive: -56.6%
